{"sequences": {"note": "Protein sequences, listed by entry. Tags and fused reporters are not part of them. Residues count along the entry.", "UniProt O42275, 24-633": "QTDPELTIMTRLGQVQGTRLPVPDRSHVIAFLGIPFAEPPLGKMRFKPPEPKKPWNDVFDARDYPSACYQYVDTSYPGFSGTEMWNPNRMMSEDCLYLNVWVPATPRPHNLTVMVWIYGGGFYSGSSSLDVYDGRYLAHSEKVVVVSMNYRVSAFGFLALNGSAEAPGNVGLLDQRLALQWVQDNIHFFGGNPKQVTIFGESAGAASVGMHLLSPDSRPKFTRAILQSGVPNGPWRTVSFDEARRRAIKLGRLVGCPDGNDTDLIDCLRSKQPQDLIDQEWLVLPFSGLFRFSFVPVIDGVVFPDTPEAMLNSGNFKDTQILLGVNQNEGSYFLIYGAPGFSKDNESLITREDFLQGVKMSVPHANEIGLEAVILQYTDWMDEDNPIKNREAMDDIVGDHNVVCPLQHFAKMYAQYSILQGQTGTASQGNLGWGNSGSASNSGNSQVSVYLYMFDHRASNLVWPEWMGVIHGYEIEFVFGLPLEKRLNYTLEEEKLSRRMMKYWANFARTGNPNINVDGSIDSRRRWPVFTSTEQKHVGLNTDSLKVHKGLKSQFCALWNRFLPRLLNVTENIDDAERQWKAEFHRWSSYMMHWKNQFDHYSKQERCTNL"}, "source": "patent US20230330045A1", "about": "(priority 2020, published 2023)", "target": "eel acetylcholinesterase (AChE) (Electrophorus electricus, UniProt O42275)", "assay": "Eel AChE fluorescence assay (AMPLEX Red kit)", "assay_type": "biochemical", "settings": "single-point screen at 20 μM; active = ≥50% inhibition; read-out: inhibition of enzyme activity compared to DMSO control (screen)", "protocol": "Enzymatic reactions consisted of 50 μM acetylcholine, 200 μM AIVIPLEX™ Red reagent, 1 U/mL horseradish peroxidase, 0.1 U/mL choline oxidase and 0.096 U/mL acetylcholinesterase, with 30 1% DMSO. […] Control reactions lacking acetylcholinesterase but containing 5 μM H2O2 in presence of compounds were analyzed at the same wavelength to exclude compounds that display assay interference. Dose-response curves were performed in duplicate.", "data": [{"smiles": "CCCCCCCCCCCCCCCC[n+]1ccccc1", "note": "[cetylpyridinium]", "values": [{"measurement": "inhibition at 20 µM", "result": "≥ 50", "unit": "%"}]}]}
